Test results: article PMC10789646
Results are given in words; binding and its absence hold for the method and conditions named. In cells and extracts the contact can be indirect. Some results given as binding are weak or reduced against the parent protein; the word gives no strength. Sequences can lack the tags named with a protein.

Chains of the proteins cited; added tags and fusions are not shown.
UniProt P55201: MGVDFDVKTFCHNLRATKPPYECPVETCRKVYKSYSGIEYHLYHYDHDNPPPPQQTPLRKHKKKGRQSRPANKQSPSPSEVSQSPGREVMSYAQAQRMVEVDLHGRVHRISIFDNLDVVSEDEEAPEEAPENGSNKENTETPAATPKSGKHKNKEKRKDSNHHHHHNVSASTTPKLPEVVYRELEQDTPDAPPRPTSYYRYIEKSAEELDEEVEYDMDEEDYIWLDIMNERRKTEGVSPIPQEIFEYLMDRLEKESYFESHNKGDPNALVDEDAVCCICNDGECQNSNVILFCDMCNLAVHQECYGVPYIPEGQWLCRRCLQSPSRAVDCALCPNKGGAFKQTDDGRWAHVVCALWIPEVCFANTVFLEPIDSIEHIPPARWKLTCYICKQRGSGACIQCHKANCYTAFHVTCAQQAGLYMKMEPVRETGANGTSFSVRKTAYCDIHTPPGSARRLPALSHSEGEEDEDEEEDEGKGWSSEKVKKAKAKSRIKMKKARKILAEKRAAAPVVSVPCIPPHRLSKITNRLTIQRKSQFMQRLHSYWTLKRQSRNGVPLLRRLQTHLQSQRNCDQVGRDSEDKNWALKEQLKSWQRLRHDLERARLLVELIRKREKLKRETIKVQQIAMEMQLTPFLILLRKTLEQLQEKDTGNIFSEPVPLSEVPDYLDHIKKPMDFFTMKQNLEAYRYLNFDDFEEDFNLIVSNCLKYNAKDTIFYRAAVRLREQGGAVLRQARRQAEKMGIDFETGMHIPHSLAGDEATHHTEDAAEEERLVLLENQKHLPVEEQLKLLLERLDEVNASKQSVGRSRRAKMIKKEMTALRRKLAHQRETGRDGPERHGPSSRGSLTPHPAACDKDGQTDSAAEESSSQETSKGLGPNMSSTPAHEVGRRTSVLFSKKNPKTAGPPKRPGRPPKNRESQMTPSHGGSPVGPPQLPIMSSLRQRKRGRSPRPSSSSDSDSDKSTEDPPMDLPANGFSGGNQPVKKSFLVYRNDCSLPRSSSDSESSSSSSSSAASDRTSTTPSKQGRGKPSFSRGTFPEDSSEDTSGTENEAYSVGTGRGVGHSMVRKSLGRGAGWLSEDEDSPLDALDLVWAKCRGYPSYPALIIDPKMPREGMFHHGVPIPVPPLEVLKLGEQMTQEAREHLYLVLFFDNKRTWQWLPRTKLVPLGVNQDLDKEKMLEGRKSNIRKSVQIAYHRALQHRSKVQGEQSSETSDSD

Molecular target: T1, Myc-tagged ILF3 (UniProt Q12906)
T1 sequence: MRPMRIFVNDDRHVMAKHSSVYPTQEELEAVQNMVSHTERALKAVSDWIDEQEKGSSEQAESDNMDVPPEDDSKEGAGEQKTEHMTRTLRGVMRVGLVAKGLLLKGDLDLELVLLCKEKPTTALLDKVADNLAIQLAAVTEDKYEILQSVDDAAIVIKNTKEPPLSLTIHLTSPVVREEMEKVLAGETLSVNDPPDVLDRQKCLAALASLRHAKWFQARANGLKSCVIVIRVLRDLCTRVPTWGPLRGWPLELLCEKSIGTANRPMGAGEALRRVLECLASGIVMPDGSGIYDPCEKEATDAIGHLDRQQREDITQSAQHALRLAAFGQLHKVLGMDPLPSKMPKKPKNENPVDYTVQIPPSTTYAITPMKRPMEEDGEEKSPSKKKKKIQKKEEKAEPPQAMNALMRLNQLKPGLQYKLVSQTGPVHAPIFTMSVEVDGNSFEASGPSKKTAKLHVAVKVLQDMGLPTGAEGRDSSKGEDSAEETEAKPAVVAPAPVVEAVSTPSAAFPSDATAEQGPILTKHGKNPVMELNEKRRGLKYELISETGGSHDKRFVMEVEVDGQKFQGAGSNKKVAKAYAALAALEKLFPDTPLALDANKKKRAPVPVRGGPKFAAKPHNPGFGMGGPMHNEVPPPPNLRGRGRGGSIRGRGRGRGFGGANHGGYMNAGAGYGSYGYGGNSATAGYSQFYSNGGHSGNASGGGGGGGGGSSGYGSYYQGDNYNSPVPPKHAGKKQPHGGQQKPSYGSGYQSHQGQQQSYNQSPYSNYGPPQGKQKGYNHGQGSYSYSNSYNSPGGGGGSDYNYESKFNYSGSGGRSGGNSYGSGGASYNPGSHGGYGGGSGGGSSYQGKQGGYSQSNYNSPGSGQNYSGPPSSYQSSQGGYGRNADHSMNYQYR
Test: co-IP; Huh-7 cells cotransfected with V5-BRPF1 and Myc-ILF3, trichostatin A treated; anti-V5 or anti-Myc on Dynabeads Protein G; with and without 5 μM PFI-4; Western blot

binding: binds
Substance: V5-tagged BRPF1 (from UniProt P55201 1-1214)
